Paper PMC6856172
Results are given in words; binding and its absence hold for the method and conditions named. In cells and extracts the contact can be indirect. Some entries that bind do so weakly or less than the wild type.

Columns and labels:
[1] = molecular target: MCL-1 (human (endogenous in A375M and GIST cells)), Q07820; assay: co-IP; immunoprecipitation from lysates of KIT-mutant GIST cells treated with imatinib or vehicle; blots for NOXA and BIM (Supplementary Fig. 4a-c); conditions: remark: other sources report otherwise
[2] = molecular target: MCL-1 (human (endogenous in A375M and GIST cells)), Q07820; assay: co-IP; anti-MCL-1 antibody (mouse, BD #559027) on whole cell lysates of A375M cells in 0.5% CHAPS/HEPES buffer, 750 ug protein, overnight 4 °C, protein A or G magnetic beads; blots for NOXA and BIM; cells treated with vehicle, PLX4720 (1 uM) or dabrafenib (24 h); conditions: remark: other sources report otherwise

B1: NOXA, Q13794 1-54 (protein)
chain: MPGKKARKNAQPSPARAPAELEVECATQLRRFGDKLNFRQKLLNLISKLFCSGT
binding [1]: binds
binding [2]: binds
